In the supplement of paper PMC10849652:
The list shows a part of the results.

By UniProt entry, the sequences of proteins in these tests, tags left out. Where a name states a change or a piece, a line headed by the entry shows the natural chain unless it says otherwise.
UniProt P13667: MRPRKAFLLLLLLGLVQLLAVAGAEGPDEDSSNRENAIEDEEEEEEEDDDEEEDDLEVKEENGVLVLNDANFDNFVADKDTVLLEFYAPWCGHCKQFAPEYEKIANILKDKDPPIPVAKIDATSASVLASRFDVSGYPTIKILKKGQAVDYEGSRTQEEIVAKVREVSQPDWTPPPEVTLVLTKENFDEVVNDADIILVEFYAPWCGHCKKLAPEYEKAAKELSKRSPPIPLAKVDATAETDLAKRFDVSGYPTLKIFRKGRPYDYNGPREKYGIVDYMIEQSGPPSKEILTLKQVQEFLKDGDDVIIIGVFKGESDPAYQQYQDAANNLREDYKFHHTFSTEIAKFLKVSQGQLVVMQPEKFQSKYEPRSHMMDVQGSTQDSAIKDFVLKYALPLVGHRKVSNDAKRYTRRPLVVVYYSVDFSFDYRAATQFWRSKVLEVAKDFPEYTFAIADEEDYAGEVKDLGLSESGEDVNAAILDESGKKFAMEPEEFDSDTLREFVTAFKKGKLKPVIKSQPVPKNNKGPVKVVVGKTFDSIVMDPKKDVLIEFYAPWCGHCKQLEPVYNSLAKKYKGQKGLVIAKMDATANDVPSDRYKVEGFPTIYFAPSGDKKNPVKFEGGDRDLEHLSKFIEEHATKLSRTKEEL
UniProt Q7Z2X7: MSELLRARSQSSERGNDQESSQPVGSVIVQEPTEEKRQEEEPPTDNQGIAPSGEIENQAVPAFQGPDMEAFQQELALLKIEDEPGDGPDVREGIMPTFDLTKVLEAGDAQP
UniProt Q9BUL8: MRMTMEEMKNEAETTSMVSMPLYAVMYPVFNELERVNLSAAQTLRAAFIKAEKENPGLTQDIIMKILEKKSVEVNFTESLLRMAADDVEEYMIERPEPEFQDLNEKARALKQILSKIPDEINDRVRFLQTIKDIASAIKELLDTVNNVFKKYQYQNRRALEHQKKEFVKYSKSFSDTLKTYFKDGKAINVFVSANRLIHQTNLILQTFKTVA
UniProt Q8WW12: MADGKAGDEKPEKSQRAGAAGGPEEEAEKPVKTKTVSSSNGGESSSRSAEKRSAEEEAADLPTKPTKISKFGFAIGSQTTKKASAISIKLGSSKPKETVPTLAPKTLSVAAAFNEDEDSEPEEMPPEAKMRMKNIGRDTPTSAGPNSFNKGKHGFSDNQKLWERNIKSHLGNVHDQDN
UniProt O00151: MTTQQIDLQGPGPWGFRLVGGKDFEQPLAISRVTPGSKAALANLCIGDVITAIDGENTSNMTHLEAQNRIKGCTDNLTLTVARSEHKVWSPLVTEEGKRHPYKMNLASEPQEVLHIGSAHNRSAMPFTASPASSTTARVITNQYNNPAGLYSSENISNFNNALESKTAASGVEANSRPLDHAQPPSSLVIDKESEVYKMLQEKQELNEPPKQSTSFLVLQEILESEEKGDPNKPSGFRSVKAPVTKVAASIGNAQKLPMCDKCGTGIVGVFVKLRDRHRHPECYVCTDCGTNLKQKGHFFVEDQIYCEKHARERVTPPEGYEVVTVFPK
UniProt P0DJ07: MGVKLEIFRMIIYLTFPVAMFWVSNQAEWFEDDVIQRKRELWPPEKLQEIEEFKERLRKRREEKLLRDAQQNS
UniProt P05165: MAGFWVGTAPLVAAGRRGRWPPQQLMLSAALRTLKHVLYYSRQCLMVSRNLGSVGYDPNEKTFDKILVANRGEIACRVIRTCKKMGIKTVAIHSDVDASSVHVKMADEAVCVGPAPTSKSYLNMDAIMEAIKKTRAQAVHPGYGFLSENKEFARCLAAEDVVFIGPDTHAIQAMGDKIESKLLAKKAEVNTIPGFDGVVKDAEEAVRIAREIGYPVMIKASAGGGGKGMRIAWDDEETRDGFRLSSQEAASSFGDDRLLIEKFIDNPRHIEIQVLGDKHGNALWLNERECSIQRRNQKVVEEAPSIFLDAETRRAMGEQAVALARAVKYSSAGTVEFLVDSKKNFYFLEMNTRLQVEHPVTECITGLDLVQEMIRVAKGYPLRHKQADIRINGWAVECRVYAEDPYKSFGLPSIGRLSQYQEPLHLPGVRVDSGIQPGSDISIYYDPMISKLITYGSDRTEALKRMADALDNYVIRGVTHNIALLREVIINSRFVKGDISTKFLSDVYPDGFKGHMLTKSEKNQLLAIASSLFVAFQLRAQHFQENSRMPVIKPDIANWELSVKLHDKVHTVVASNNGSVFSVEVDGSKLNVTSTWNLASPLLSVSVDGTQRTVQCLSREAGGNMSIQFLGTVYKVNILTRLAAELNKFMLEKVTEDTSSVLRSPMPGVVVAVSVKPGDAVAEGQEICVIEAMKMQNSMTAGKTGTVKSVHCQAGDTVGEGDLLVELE
UniProt Q15118, whole entry, looked up: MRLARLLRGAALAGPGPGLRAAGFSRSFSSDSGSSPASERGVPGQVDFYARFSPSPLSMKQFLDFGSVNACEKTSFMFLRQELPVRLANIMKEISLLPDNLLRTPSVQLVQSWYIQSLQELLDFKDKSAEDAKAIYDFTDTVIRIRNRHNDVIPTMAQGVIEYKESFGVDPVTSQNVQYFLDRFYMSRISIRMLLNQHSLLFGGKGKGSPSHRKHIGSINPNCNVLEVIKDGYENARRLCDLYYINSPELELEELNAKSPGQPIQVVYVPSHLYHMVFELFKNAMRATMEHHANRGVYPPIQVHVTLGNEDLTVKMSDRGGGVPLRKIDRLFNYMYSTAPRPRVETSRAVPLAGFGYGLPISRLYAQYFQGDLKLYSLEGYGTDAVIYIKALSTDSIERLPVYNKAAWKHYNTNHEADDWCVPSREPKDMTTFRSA
UniProt Q13177, whole entry, looked up: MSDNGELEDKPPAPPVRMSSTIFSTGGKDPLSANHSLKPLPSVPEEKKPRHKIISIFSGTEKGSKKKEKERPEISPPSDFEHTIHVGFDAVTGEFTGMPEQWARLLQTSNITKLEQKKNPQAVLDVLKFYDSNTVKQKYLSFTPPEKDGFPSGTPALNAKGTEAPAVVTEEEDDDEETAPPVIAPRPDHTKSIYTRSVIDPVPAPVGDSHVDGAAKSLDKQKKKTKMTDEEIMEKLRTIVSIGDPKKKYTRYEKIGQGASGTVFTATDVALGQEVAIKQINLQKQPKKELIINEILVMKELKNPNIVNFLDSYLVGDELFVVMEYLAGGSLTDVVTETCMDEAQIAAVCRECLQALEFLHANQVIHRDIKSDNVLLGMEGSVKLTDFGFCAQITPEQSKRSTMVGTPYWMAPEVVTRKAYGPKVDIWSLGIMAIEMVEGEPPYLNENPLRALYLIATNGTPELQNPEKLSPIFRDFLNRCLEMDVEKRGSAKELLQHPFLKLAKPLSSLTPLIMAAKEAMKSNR
UniProt O00541, whole entry, looked up: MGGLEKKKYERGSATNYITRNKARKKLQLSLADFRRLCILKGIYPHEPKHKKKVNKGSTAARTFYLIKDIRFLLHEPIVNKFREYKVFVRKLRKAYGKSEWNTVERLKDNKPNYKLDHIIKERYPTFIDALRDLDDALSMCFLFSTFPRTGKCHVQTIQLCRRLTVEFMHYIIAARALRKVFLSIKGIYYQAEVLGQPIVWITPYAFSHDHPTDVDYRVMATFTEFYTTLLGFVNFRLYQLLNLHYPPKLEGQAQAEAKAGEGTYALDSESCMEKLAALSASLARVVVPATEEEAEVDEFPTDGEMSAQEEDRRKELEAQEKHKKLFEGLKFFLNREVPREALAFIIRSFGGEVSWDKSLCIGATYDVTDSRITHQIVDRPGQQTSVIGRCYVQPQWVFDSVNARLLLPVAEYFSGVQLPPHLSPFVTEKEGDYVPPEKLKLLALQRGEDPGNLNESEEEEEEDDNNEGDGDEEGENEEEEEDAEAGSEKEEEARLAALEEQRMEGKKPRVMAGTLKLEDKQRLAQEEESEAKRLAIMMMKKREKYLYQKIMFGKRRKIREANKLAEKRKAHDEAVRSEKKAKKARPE
UniProt P12955: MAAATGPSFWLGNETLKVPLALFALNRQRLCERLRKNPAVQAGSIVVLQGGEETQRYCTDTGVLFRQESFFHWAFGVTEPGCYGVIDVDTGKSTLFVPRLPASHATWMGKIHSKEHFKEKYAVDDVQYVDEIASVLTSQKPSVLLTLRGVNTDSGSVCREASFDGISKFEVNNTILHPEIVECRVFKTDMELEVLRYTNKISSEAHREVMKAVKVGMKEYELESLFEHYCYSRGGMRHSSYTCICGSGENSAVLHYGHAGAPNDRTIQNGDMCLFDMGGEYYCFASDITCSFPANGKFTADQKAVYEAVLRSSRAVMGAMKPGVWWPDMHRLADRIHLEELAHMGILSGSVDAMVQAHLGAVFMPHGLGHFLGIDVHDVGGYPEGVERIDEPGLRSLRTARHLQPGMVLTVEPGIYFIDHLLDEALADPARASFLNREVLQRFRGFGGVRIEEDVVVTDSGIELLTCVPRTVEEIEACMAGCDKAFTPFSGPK
UniProt Q9UNF0: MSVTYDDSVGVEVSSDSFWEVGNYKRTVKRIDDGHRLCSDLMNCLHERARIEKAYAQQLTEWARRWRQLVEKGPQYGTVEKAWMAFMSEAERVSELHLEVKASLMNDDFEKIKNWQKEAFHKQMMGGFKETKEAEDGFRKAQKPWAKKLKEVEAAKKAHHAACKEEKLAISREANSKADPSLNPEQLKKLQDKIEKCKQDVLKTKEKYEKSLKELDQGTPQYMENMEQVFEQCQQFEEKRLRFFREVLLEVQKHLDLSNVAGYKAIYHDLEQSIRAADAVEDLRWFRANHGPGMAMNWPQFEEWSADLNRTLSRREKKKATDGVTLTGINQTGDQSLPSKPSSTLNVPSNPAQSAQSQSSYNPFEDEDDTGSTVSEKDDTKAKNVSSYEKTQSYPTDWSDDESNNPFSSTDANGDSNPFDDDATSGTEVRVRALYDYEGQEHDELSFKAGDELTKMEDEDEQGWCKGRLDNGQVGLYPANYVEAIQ
UniProt O00764: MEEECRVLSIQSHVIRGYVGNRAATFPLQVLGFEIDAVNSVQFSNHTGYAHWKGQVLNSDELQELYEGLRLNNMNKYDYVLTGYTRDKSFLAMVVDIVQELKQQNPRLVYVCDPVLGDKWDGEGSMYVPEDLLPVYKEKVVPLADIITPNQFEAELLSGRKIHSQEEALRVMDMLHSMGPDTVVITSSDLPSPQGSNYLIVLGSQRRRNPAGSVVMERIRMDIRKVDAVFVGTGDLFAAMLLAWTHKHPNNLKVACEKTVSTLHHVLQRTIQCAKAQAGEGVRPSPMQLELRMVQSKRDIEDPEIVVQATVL
UniProt Q6ZW49, whole entry, looked up: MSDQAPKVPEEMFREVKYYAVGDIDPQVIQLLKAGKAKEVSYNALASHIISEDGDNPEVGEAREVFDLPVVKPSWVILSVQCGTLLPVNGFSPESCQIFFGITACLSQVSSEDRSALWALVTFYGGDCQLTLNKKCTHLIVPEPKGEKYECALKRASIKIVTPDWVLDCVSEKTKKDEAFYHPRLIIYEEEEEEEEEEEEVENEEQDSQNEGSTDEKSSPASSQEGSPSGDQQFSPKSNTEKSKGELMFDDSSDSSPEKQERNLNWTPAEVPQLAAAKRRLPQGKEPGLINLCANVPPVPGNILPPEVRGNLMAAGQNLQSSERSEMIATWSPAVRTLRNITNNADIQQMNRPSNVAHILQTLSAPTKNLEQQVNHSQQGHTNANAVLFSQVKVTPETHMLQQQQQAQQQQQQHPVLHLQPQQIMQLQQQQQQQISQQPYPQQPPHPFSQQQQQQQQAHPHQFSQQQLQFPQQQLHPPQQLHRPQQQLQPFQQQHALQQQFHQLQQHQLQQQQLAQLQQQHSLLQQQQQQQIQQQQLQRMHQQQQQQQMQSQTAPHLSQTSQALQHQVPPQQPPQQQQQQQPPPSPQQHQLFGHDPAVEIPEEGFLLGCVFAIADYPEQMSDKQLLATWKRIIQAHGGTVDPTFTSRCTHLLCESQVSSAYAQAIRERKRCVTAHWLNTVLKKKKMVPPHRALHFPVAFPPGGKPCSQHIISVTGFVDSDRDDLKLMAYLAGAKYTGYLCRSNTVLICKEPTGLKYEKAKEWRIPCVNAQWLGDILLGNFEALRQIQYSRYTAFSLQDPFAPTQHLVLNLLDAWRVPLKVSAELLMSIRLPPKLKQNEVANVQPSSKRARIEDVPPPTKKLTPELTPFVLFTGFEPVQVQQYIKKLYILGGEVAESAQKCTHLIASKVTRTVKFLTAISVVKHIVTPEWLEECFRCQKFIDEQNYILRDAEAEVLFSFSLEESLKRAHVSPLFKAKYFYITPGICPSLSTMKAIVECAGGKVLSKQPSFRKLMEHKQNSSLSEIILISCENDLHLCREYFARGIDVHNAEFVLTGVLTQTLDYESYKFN

Legend:
Experiment in all cases: log2 fold change, soluble protein after heating vs DMSO (PISA); higher = thermal stabilisation; K562 cells, 10 uM, 30 min; active = over 0.2 and 3.5 SD of the protein, either way, in both replicates (recomputed)
[1] = compound: COC1=CC=C(C=C1)CN2C=CC3=C2C=C(C=C3)C(=O)NO
Summary of the method: (§1)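 Thermal stability values are relative to control samples and come from duplicates. They are expressed as log2 fold changes. For measurement, K562 cells (2×10^6 cells/mL) received 10 μM compound for 30 min, and aliquots were heated for 3 min over 48°C-58°C, pooled, and extracted at 4°C in PBS with 0.5% NP-40. Soluble protein, the supernatant after 21,000xg for 90 min, was quantified by TMTpro 16plex LC-MS/MS with equalised channel sums.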

filanesib = compound: CON(C)C(=O)N1N=C(c2cc(F)ccc2F)S[C@@]1(CCCN)c1ccccc1 [filanesib]
Summary of the method: as §1

zotarolimus = compound: CO[C@H]1C[C@@H]2CC[C@@H](C)[C@@](O)(O2)C(=O)C(=O)N2CCCC[C@H]2C(=O)O[C@H]([C@H](C)C[C@@H]2CC[C@H](n3cnnn3)[C@H](OC)C2)CC(=O)[C@H](C)/C=C(\C)[C@@H](O)[C@@H](OC)C(=O)[C@H](C)C[C@H](C)/C=C/C=C/C=C/1C [zotarolimus]
Summary of the method: as §1

idasanutlin = compound: COc1cc(C(=O)O)ccc1NC(=O)[C@@H]1N[C@@H](CC(C)(C)C)[C@](C#N)(c2ccc(Cl)cc2F)[C@H]1c1cccc(Cl)c1F [idasanutlin]
Summary of the method: as §1

alisertib = compound: COc1cc(Nc2ncc3c(n2)-c2ccc(Cl)cc2C(c2c(F)cccc2OC)=NC3)ccc1C(=O)O [alisertib]
Summary of the method: as §1

[2] = compound: COc1cc2nc(-c3cc(F)ccc3O)nc(N[C@@H]3CNC[C@H]3C(C)(C)O)c2cc1OC
Summary of the method: as §1

gefitinib = compound: COc1cc2ncnc(Nc3ccc(F)c(Cl)c3)c2cc1OCCCN1CCOCC1 [gefitinib]
Summary of the method: as §1

[3] = compound: COc1cccc2cc(-c3nc([C@H]4CC[C@H](C(=O)O)CC4)n4ncnc(N)c34)[nH]c12
Summary of the method: as §1

lapatinib = compound: CS(=O)(=O)CCNCc1ccc(-c2ccc3ncnc(Nc4ccc(OCc5cccc(F)c5)c(Cl)c4)c3c2)o1 [lapatinib]
Summary of the method: as §1

pictilisib = compound: CS(=O)(=O)N1CCN(Cc2cc3nc(-c4cccc5[nH]ncc45)nc(N4CCOCC4)c3s2)CC1 [pictilisib]
Summary of the method: as §1

[4] = compound: CS(=O)(=O)c1ccc(-c2cnc(N)c(C(=O)Nc3ccccc3)n2)cc1
Summary of the method: as §1

crizotinib = compound: C[C@@H](Oc1cc(-c2cnn(C3CCNCC3)c2)cnc1N)c1c(Cl)ccc(F)c1Cl [crizotinib]
Summary of the method: as §1

[5] = compound: C[C@@H]1COCCN1C2=NC(=NC(=C2)C3(CC3)S(=O)(=O)C)C4=C5C=CNC5=CC=C4
Summary of the method: as §1

[6] = compound: C[C@H](C1=CC=C(C=C1)C(=O)NC2=C3C=CNC3=NC=C2)N
Summary of the method: as §1

duvelisib = compound: C[C@H](Nc1ncnc2nc[nH]c12)c1cc2cccc(Cl)c2c(=O)n1-c1ccccc1 [duvelisib]
Summary of the method: as §1

gandotinib = compound: Cc1cc(Nc2cc(CN3CCOCC3)c3nc(C)c(Cc4ccc(Cl)cc4F)n3n2)n[nH]1 [gandotinib]
Summary of the method: as §1

tozasertib = compound: Cc1cc(Nc2cc(N3CCN(C)CC3)nc(Sc3ccc(NC(=O)C4CC4)cc3)n2)n[nH]1 [tozasertib]
Summary of the method: as §1

[7] = compound: Cc1cc(SCc2sc(-c3ccc(C(F)(F)F)cc3)nc2C)ccc1OCC(=O)O
Summary of the method: as §1

doramapimod = compound: Cc1ccc(-n2nc(C(C)(C)C)cc2NC(=O)Nc2ccc(OCCN3CCOCC3)c3ccccc23)cc1 [doramapimod]
Summary of the method: as §1

ispinesib = compound: Cc1ccc(C(=O)N(CCCN)[C@@H](c2nc3cc(Cl)ccc3c(=O)n2Cc2ccccc2)C(C)C)cc1 [ispinesib]
Summary of the method: as §1

Measured: log2 fold change

PDIA4 (UniProt P13667)
inactive: [1] -0.036 | filanesib 0.046 | zotarolimus 0.046 | idasanutlin 0.014 | alisertib -0.071 | [2] 0.002 | gefitinib -0.033 | [3] -0.082 | lapatinib 0.021 | pictilisib -0.074 | [4] 0 | crizotinib 0.041 | [5] -0.061 | [6] 0.041 | duvelisib -0.042 | gandotinib 0.028 | tozasertib 0.038 | [7] 0.047 | doramapimod 0.033 | ispinesib 0.022

PAGE2 (UniProt Q7Z2X7)
inactive: [1] -0.035 | filanesib 0.243 | zotarolimus 0.102 | idasanutlin 0.143 | alisertib -0.085 | [2] -0.196 | gefitinib 0.032 | [3] 0.11 | lapatinib -0.136 | pictilisib -0.03 | [4] -0.004 | crizotinib 0.257 | [5] 0.218 | [6] -0.054 | duvelisib 0.255 | gandotinib 0.128 | tozasertib -0.047 | [7] -0.029 | doramapimod 0.054

PDCD10 (UniProt Q9BUL8)
inactive: [1] 0.019 | filanesib -0.085 | zotarolimus 0.013 | idasanutlin -0.066 | alisertib -0.03 | [2] 0.05 | gefitinib -0.034 | [3] 0.088 | lapatinib 0.008 | pictilisib 0.048 | [4] 0.047 | crizotinib -0.163 | [5] 0.003 | [6] -0.054 | duvelisib 0.05 | gandotinib -0.01 | tozasertib -0.06 | [7] 0.025 | doramapimod -0.009 | ispinesib -0.041

PCNP (UniProt Q8WW12)
inactive: [1] 0.158 | filanesib -0.027 | zotarolimus -0.038 | idasanutlin 0.016 | alisertib -0.016 | [2] -0.01 | gefitinib -0.015 | [3] 0.035 | lapatinib 0.009 | pictilisib 0 | [4] 0 | crizotinib 0.001 | [5] -0.002 | [6] 0.001 | duvelisib -0.005 | gandotinib 0.018 | tozasertib -0.027 | [7] -0.035 | doramapimod -0.036 | ispinesib 0.082

PASK (UniProt Q96RG2)
inactive: [1] -0.018 | filanesib -0.037 | zotarolimus -0.01 | idasanutlin -0.091 | alisertib 0.023 | [2] -0.058 | gefitinib 0.01 | [3] 0.095 | lapatinib 0.057 | pictilisib 0.02 | [4] 0.037 | crizotinib -0.014 | [5] 0.024 | [6] 0.011 | duvelisib -0.003 | gandotinib -0.059 | tozasertib -0.009 | [7] -0.013 | doramapimod -0.026 | ispinesib -0.001

PDLIM1 (UniProt O00151)
inactive: [1] 0.008 | filanesib -0.009 | zotarolimus 0.008 | idasanutlin 0.007 | alisertib -0.105 | [2] -0.04 | gefitinib -0.008 | [3] 0.009 | lapatinib 0.011 | pictilisib 0.032 | [4] -0.002 | crizotinib 0 | [5] -0.009 | [6] -0.082 | duvelisib 0.009 | gandotinib -0.022 | tozasertib -0.004 | [7] -0.005 | doramapimod -0.038 | ispinesib 0.039

PARS2 (UniProt Q7L3T8)
inactive: [1] 0.107 | filanesib 0.007 | zotarolimus 0.025 | idasanutlin 0.022 | alisertib -0.094 | [2] 0.042 | gefitinib -0.019 | [3] -0.027 | lapatinib 0.023 | pictilisib 0.063 | [4] -0.051 | crizotinib 0.102 | [5] -0.058 | [6] 0.007 | duvelisib 0.027 | gandotinib 0.021 | tozasertib -0.057 | [7] -0.004 | doramapimod -0.022 | ispinesib -0.009

PET100 (UniProt P0DJ07)
inactive: [1] -0.109 | filanesib 0.056 | zotarolimus -0.018 | idasanutlin -0.138 | alisertib -0.021 | [2] 0.144 | gefitinib 0 | [3] -0.012 | lapatinib -0.038 | pictilisib -0.011 | [4] 0.114 | crizotinib 0.061 | [5] 0.104 | [6] -0.021 | duvelisib 0.05 | gandotinib -0.045 | tozasertib -0.039 | [7] -0.045 | doramapimod 0.008 | ispinesib 0.148

PCCA (UniProt P05165)
inactive: [1] -0.051 | filanesib -0.108 | zotarolimus -0.049 | idasanutlin -0.025 | alisertib -0.02 | [2] -0.027 | gefitinib 0.009 | [3] 0.032 | lapatinib 0.083 | pictilisib 0.054 | [4] 0.002 | crizotinib -0.023 | [5] 0.044 | [6] 0.037 | duvelisib 0.056 | gandotinib 0.039 | tozasertib -0.074 | [7] -0.011 | doramapimod 0.042 | ispinesib -0.083

PDK1 (UniProt Q15118)
inactive: [1] -0.051 | filanesib -0.03 | zotarolimus -0.045 | idasanutlin -0.056 | alisertib -0.151 | [2] 0.189 | gefitinib -0.026 | [3] 0.03 | lapatinib -0.056 | pictilisib 0.139 | [4] 0.06 | crizotinib -0.012 | [5] 0.102 | [6] -0.034 | duvelisib 0.068 | gandotinib 0.007 | tozasertib -0.016 | [7] 0.019 | doramapimod -0.012 | ispinesib 0.067

PAK2 (UniProt Q13177)
inactive: [1] -0.004 | filanesib -0.021 | zotarolimus 0.012 | idasanutlin -0.052 | alisertib 0.009 | [2] -0.006 | gefitinib -0.034 | [3] 0.047 | lapatinib -0.012 | pictilisib 0.003 | [4] 0.027 | crizotinib 0.061 | [5] 0.044 | [6] -0.045 | duvelisib 0.019 | gandotinib 0.004 | tozasertib 0.024 | [7] -0.002 | doramapimod -0.049 | ispinesib 0.075

PES1 (UniProt O00541)
inactive: [1] -0.127 | filanesib 0.266 | zotarolimus 0.09 | idasanutlin 0.151 | alisertib -0.36 | [2] 0.053 | gefitinib -0.044 | [3] -0.176 | lapatinib 0.026 | pictilisib -0.036 | [4] -0.066 | crizotinib 0.249 | [5] -0.145 | [6] -0.064 | duvelisib -0.044 | gandotinib 0.111 | tozasertib 0.075 | [7] 0.074 | doramapimod 0.173 | ispinesib -0.162

PEPD (UniProt P12955)
inactive: [1] 0.063 | filanesib -0.005 | zotarolimus -0.028 | idasanutlin -0.014 | alisertib 0.019 | [2] -0.019 | gefitinib -0.019 | [3] 0.034 | lapatinib 0.022 | pictilisib 0.106 | [4] 0 | crizotinib 0.032 | [5] 0.006 | [6] -0.087 | duvelisib 0.029 | gandotinib 0.002 | tozasertib 0.058 | [7] -0.059 | doramapimod -0.001 | ispinesib -0.019

PACSIN2 (UniProt Q9UNF0)
inactive: [1] 0.021 | filanesib 0.004 | zotarolimus 0.051 | idasanutlin -0.037 | alisertib 0.057 | [2] 0.122 | gefitinib 0.079 | [3] -0.038 | lapatinib -0.046 | pictilisib -0.022 | [4] 0.029 | crizotinib -0.186 | [5] 0.044 | [6] 0.067 | duvelisib -0.024 | gandotinib -0.081 | tozasertib -0.044 | [7] 0.172 | doramapimod 0.036 | ispinesib -0.199

PDXK (UniProt O00764)
inactive: [1] 0.1 | filanesib 0.003 | zotarolimus -0.072 | idasanutlin 0.014 | alisertib -0.114 | [2] -0.01 | gefitinib 0.012 | [3] 0.044 | lapatinib -0.009 | pictilisib -0.061 | [4] 0.03 | crizotinib 0.007 | [5] -0.019 | [6] -0.028 | duvelisib 0.035 | gandotinib -0.01 | tozasertib -0.037 | [7] -0.012 | doramapimod -0.007 | ispinesib 0.061

PAXIP1 (UniProt Q6ZW49)
inactive: [1] 0.131 | filanesib 0.049 | zotarolimus 0.011 | idasanutlin 0.085 | alisertib -0.042 | [2] -0.009 | gefitinib 0.077 | [3] -0.123 | lapatinib 0.027 | pictilisib 0.05 | [4] 0.015 | crizotinib -0.144 | [5] 0.029 | [6] 0.138 | duvelisib 0.046 | gandotinib -0.083 | tozasertib 0.057 | [7] 0.094 | doramapimod 0.025 | ispinesib -0.238

3 successive entries out of the list so far, for reference:
PCCA (UniProt P05165)
inactive: [1] -0.051 | filanesib -0.108 | zotarolimus -0.049 | idasanutlin -0.025 | alisertib -0.02 | [2] -0.027 | gefitinib 0.009 | [3] 0.032 | lapatinib 0.083 | pictilisib 0.054 | [4] 0.002 | crizotinib -0.023 | [5] 0.044 | [6] 0.037 | duvelisib 0.056 | gandotinib 0.039 | tozasertib -0.074 | [7] -0.011 | doramapimod 0.042 | ispinesib -0.083

PDK1 (UniProt Q15118)
inactive: [1] -0.051 | filanesib -0.03 | zotarolimus -0.045 | idasanutlin -0.056 | alisertib -0.151 | [2] 0.189 | gefitinib -0.026 | [3] 0.03 | lapatinib -0.056 | pictilisib 0.139 | [4] 0.06 | crizotinib -0.012 | [5] 0.102 | [6] -0.034 | duvelisib 0.068 | gandotinib 0.007 | tozasertib -0.016 | [7] 0.019 | doramapimod -0.012 | ispinesib 0.067

PAK2 (UniProt Q13177)
inactive: [1] -0.004 | filanesib -0.021 | zotarolimus 0.012 | idasanutlin -0.052 | alisertib 0.009 | [2] -0.006 | gefitinib -0.034 | [3] 0.047 | lapatinib -0.012 | pictilisib 0.003 | [4] 0.027 | crizotinib 0.061 | [5] 0.044 | [6] -0.045 | duvelisib 0.019 | gandotinib 0.004 | tozasertib 0.024 | [7] -0.002 | doramapimod -0.049 | ispinesib 0.075
